In publication PMC5638853 one finds binding data, which are given here for one substance.

No constants are given. Whether binding was seen depends on the method and setting. In cells and extracts the contact can be indirect. Binding can be weak; no strength is given. Where a sequence is shown, tags or fusion partners need not be part of it.

The test deals with T1, flag-tagged transmembrane protein 168 (flag-TMEM168) (mouse) (UniProt Q91VX9).
T1 sequence: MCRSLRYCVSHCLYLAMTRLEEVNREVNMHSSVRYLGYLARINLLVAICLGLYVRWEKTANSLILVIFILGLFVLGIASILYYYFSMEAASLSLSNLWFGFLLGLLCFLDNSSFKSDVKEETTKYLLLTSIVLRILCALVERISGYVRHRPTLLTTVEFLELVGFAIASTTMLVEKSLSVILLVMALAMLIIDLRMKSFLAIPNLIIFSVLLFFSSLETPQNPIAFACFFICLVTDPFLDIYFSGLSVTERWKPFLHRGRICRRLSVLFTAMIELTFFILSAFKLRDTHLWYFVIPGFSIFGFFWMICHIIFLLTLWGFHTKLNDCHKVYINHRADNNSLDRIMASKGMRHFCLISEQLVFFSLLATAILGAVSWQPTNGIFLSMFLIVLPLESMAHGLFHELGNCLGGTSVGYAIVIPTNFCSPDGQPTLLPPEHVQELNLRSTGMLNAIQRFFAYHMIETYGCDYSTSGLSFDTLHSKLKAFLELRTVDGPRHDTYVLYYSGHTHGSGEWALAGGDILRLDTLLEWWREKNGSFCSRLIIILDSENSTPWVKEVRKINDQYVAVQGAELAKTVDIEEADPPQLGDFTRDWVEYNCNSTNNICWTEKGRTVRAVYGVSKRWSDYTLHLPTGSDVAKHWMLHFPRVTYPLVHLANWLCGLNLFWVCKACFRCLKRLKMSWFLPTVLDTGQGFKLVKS
Nature of the test: co-IP; total lysate of COS-7 cells transfected with flag-TMEM168; anti-flag antibody overnight at 4 °C, Protein G Sepharose for 3 h, 3 washes; western blot with anti-OPN. On the technique in general: In western blotting, separated proteins are transferred to a membrane and probed.

On to osteopontin (OPN), for which the binding entry is “binds”.
